Data taken from publication PMC7708047, “VEZF1–guanine quadruplex DNA interaction regulates alternative polyadenylation and detyrosinase activity of VASH1”.
No constants are given. Whether binding was seen depends on the method and setting. Binding seen in cells or lysates may run through a third protein. Some binding calls cover weakened binding; strength is not graded here.

Protein sequences, listed by entry. Tags and fused reporters are not part of them. Lines headed by an entry give the natural chain unless they say otherwise; changes in a name come on top. Chains listed by the source or under a name are the forms on record and can include a tag or linker.
UniProt Q7L8A9: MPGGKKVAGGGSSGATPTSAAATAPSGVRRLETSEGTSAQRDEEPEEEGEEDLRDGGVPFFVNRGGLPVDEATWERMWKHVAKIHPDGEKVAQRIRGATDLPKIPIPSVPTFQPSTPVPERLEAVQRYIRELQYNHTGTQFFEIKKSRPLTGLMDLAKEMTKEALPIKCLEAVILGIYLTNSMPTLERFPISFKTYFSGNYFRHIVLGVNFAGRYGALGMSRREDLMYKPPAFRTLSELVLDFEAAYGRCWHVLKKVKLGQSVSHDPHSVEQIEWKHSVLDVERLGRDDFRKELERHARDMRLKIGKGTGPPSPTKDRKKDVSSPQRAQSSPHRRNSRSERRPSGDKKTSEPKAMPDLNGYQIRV
Vasohibin 1, short isoform (VASH1B) (Q7L8A9-2, form named): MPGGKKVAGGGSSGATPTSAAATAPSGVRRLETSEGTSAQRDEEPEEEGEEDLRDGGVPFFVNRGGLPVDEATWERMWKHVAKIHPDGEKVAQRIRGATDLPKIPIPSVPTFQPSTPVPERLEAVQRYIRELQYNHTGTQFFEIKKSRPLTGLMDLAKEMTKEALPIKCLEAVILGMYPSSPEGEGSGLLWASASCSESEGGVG

Biological target: T1, Small vasohibin-binding protein (SVBP) (UniProt Q8N300)
T1 sequence: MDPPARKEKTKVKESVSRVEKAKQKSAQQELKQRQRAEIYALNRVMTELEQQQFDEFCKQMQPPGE
Assay: co-IP; reciprocal immunoprecipitation followed by immunoblot analysis (called reciprocal pull-down in the text); cells, tags and buffers not described in the methods shown

Vasohibin 1, short isoform (VASH1B) (from UniProt Q7L8A9-2 1-204)
binding: no binding

Vasohibin 1, long isoform (VASH1A) (from UniProt Q7L8A9 1-365)
binding: binds
